Record: PubChem BioAssay AID602196 (INSERM, 2012)

Test: 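Genes whose knock-down alters cisplatin killing of lung cancer cells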
System: human A549 lung cancer cells
Knock-down reagent: siRNA pair against human genes
Time to read-out: 48 h transfection before cisplatin; time from cisplatin to read-out not stated
Conditions: cisplatin at a dose killing half of control-siRNA cells; exact dose and duration not given
Measurement: 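Shift in cisplatin death relative to control siRNA, from -50 (all cells die) to +50 (no cells die); siRNAs harmful on their own scored 0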
Reading the numbers: two-siRNA summed score (-2 to +2): higher = both siRNAs protect from cisplatin killing; -2 means both sensitise
Hit rule: 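Each siRNA scores 0 if harmful alone by LDH or WST-1, otherwise +1 if it reduces and -1 if it increases cisplatin killing; a gene is active when both siRNAs agree (sum +2 or -2)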
Calls: active = both siRNAs shift cisplatin killing the same way; inactive = no consistent shift, or siRNA harmful alone
The deposit covers about 23,000 reagents; this is a part drawn at random. 455 of all reagents (2%) were called active. 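Active includes both protection and sensitisation; some change values fall well beyond the stated -50 to +50 range.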 The numbers tell different reagents against one gene apart. Not all columns of the deposit are shown. Not given: the amount of reagent.

two-siRNA summed score (-2 to +2), by gene and reagent
LOC388135: #1 1 inactive
USP32P2: #1 1 inactive
CYB561: #1 0 inactive; #2 0 inactive
LOC90113: #1 0 inactive
OR6Y1: #1 1 inactive
LOC389896: #1 0 inactive
UBE2D2: #1 0 inactive
ZNF398: #1 0 inactive
LARP6: #1 1 inactive
ZC3H18: #1 0 inactive
VAT1L: #1 0 inactive
DUOXA2: #1 0 inactive
DGKE: #1 -1 inactive
LOC390557: #1 1 inactive
ACSM6: #1 0 inactive
H2AX: #1 0 inactive
LOC391819: #1 1 inactive
B4GALT2: #1 0 inactive

Copied from the list:
Result of H2AX in “two-siRNA summed score (-2 to +2)”: 0
For “two-siRNA summed score (-2 to +2)”, DGKE shows -1

Continued.
two-siRNA summed score (-2 to +2), by gene and reagent
LOC344172: #1 1 inactive
PCED1B: #1 0 inactive
ZCCHC13: #1 0 inactive
AGBL2: #1 0 inactive
FLJ45651: #1 0 inactive
EIF5B: #1 0 inactive
WDPCP: #1 0 inactive
ZBTB11: #1 -1 inactive
KRT24: #1 0 inactive
SGCE: #1 0 inactive
GJA5: #1 1 inactive
REELD1: #1 0 inactive
SLC47A1: #1 -1 inactive
RPS15: #1 0 inactive
DRD5: #1 0 inactive
ZNF512B: #1 0 inactive
LOC387939 (retired record): #1 0 inactive
NUP210: #1 0 inactive
CEP43: #1 0 inactive
ZMAT2: #1 1 inactive
